Results reported in EP4621052A1, “IMMUNE CELL TARGETING PROBE, PRE-TARGETING RECOGNITION AND DRUG DELIVERY SYSTEM BASED ON PROBE, AND USE THEREOF” (Guangdong Keyangle Life Technology Co., Ltd., priority 2022, dated 2024).
No constants are given. Whether binding was seen depends on the method and setting. Some entries that bind do so weakly or less than the wild type.

Biological target: T1, Peptide segment KS24 (…)
T1 sequence (peptide): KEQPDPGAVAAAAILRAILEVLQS
Experiment: indirect ELISA, peptide as coating antigen

B1: KA-001 monoclonal antibody (antibody, mouse IgG1, kappa, V domains shown)
VH: DVKIVESGGGLVKLGGSLKLSCAASGFTFSRNYMSWVRQTPEKRLELVAGINNNGGSTYYPDTVKGRFTISRDNAKNTLYLQMSSLRSEDTAIYYCAKRGFITTVGAMDYWGQGISVTVSS
VL: DIQMTQTTFSLSASLGDRVTISCRASQDISNYLNWYQQIPDGTVKLLIYYTSRLHSGVPSRFSGSGSGTDYSLTISNLEQEDIATYFCQQVHTLPYTFGGGTKLEMKR
binding: binds
